The source of these data is PubChem BioAssay AID2685 (National Center for Advancing Translational Sciences (NCATS), 2010).

The structures appear in SMILES notation. The list shows a part of the results. Further columns of the screen follow, without active or inactive calls. Most of these compounds were active or inconclusive in the main read-out, so they are no random draw. The note in brackets gives the kind of curve behind each potency; many fits are weak.

This assay in a line: qHTS Assay for Lipid Storage Modulators in Drosophila S3 Cells.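 For cell number change: cells counted by Cell Tracker Red CMTPX staining in the red channel.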 The following applies: BODIPY lipid droplet fluorescence, 18-24 h; for cell number change: measured here: cell count max response, cells fed with added oleic acid. The procedure, abridged:
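Drosophila S3 cells got compounds at several concentrations plus oleic acid (400 uM solution). Laser-scanning cytometry with 488 nm excitation read lipid droplets at 500-530 nm and cells at 575-640 nm. Percent activity was relative to 20 uM Triacsin C.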

Setting [1] is: measured here: cell number channel AC50, cells fed with added oleic acid.
The mark [2] stands for this setting: measured here: lipid fluorescence (Fed channel) AC50, cells fed with added oleic acid.

Take `O=C(Cc1cccs1)Nc1ccc(F)c(S(=O)(=O)N2CCOCC2)c1`: the cell number change was -17.4%.

With `CSc1ncccc1C(=O)N1CCCC(Nc2ccc(C)c(C)c2)C1` (stereo not drawn), the cell number change was 41.4%. Besides, the AC50 under setting [1] is 7.31 µM [rising, partial curve, poor fit]. Also, the AC50 under setting [2] was 6.51 µM [falling, single point]. On to `COc1ccccc1CCc1nnc(CCC(=O)NCC2CCCO2)o1` (stereo not drawn), for which, under setting [2], the AC50 was 29.1 µM [rising, single point]. With `CCC1C/C(=C\c2cc(OC)c(OC)cc2OC)C(=O)/C(=C/c2cc(OC)c(OC)cc2OC)C1` (stereo not drawn), the cell number change was found to be 0.709%. With `COc1ccc(NC(=S)NC(NC(=O)c2ccccc2Cl)C(Cl)(Cl)Cl)c([N+](=O)[O-])c1` (stereo not drawn), the cell number change came to 31.1%. In addition, the AC50 under setting [1] is 1.3 µM [rising, full curve]. Besides, the AC50 under setting [2] was 6.51 µM [rising, single point]. Consider `COc1ccc(OC)c(CCNC(=O)C(=O)Nc2ccc3nc4n(c(=O)c3c2)CCCCC4)c1`, for which the cell number change was -12.9%. Also, the AC50 under setting [2] was 13 µM [falling, partial curve, poor fit]. For the compound `COc1ccc(CN(C(=O)CSc2nnc(-c3c[nH]c4ccccc34)o2)c2ccc(F)cc2)cc1OC`, the cell number change was -40.6%. The AC50 under setting [1] was 20.6 µM [falling, single point]. Moreover, under setting [2], the AC50 was 18.4 µM [falling, single point]. As for `O=C(COC(=O)c1cccs1)NC1CCCC1`, the AC50 under setting [2] is 29.1 µM [rising, single point]. Regarding `CCOc1ccc(NC(=O)C2CCCN(S(=O)(=O)c3c(C)noc3C)C2)cc1` (stereo not drawn), the cell number change turned out to be 21.4%. For the same compound, the AC50 under setting [2] is 18.4 µM [rising, partial curve, poor fit]. On to `Cc1cc(C(=O)N/N=C/c2ccc(Br)o2)n[nH]1`, for which the cell number change amounted to 10.1%. The AC50 under setting [2] is 5.8 µM [rising, single point].

Take `CC(=O)NCCC(=O)Nc1ccc(C(N)=O)cc1`: the cell number change is -46%. Further, the AC50 under setting [2] was 25.9 µM [falling, single point].

In the case of `CCOc1ccc(NC(=O)CC2C(=O)N(c3ccc(OCC)cc3)C(=S)N2C2CC2)cc1` (stereo not drawn), the cell number change came out at 5.06%. Moreover, the AC50 under setting [1] was 2.31 µM [falling, single point]. The AC50 under setting [2] is 1.16 µM [falling, partial curve]. For the compound `COCCOC(=O)c1c(C)nc(SCC(=O)Nc2ccc(C)cc2)c(C#N)c1-c1ccco1`, the cell number change was 20.4%. The AC50 under setting [1] is 0.58 µM [rising, partial curve, poor fit]. Moreover, the AC50 under setting [2] was 0.58 µM [rising, partial curve]. Consider `COc1ccc(C2C(C(=O)N3CCN(c4ccccn4)CC3)CCC(=O)N2c2cc(OC)c(OC)c(OC)c2)cc1` (stereo not drawn), for which the cell number change was 59.8%.

Consider `COc1ccc(S(N)(=O)=O)cc1C(=O)OCC(=O)NC(C)(C#N)C1CC1` (stereo not drawn), for which the cell number change is -4.42%. Besides, the AC50 under setting [2] was 0.82 µM [rising, single point].

Regarding `Cc1ccc2c(c1)c1c(n2CC(O)Cn2nc(C)c(Br)c2C)CCCC1` (stereo not drawn), the cell number change was 6.28%. With `Cc1ccc(COC(=O)CCN=C2NS(=O)(=O)c3ccccc32)cc1`, the cell number change is -35%. The AC50 under setting [1] was 16.4 µM [falling, partial curve, poor fit].

Consider `O=C(/C=C/c1cccc(F)c1)NCc1ccc2c(c1)OCO2`, for which the cell number change was found to be 14.6%. The AC50 under setting [2] was 0.82 µM [rising, full curve, poor fit].

With `CN=C1S/C(=C\c2cn(CC(=O)OC)c3ccccc23)C(=O)N1C`, the cell number change came to 19.8%. In addition, under setting [1], the AC50 was 2.59 µM [rising, single point]. Turning to `O=C(CSc1nccn1Cc1ccccc1)Nc1nccs1`, the cell number change came out at 6.17%. Besides, the AC50 under setting [2] is 20.6 µM [rising, single point]. In the case of `COc1ccc(C(CNC(=O)CCNS(=O)(=O)c2ccc(C)cc2)N2CCOCC2)cc1` (stereo not drawn), the cell number change is -98.3%. Under setting [1], the AC50 was 20.6 µM [falling, single point]. In addition, under setting [2], the AC50 is 29.1 µM [rising, single point]. With `COC(=O)c1c(NC(=O)CCS(=O)(=O)c2ccccc2)sc2c1CCN(C)C2`, the cell number change came out at 15.9%. Besides, the AC50 under setting [2] is 25.9 µM [rising, single point]. For the compound `CC(=O)Nc1ccc(S(=O)(=O)NC(C)CCc2ccccc2)cc1` (stereo not drawn), the cell number change was -21.2%. Further, the AC50 under setting [2] is 23.1 µM [rising, single point]. In the case of `CSc1nc2ccccc2n1CC(=O)N1CCCCC1`, the cell number change came to 34.1%. The AC50 under setting [1] was 29.1 µM [rising, single point]. For the compound `O=C(NCCCO)c1nc2ccccc2s1`, the cell number change was -3.17%.

As for `O=C(O)C1Cc2ccccc2CN1C(=O)COc1ccc(Cl)cc1` (stereo not drawn), the cell number change is -7.26%. The AC50 under setting [1] is 3.66 µM [falling, partial curve, poor fit]. Consider `CN(C)CCCN1C(=O)c2oc3ccccc3c(=O)c2C1c1cccs1` (stereo not drawn), for which the cell number change was -7.93%. The AC50 under setting [2] was 6.51 µM [falling, single point].

`CCc1ccc(N(CC(=O)NC(C)(C)CC)C(=O)CCC(=O)Nc2nccs2)cc1`: the cell number change was -8.14%. The AC50 under setting [2] was 29.1 µM [falling, single point]. Turning to `O=C(Nc1ccccc1C(=O)O)c1cccc(C(=O)Nc2ccccc2C(=O)O)c1`, the cell number change amounted to 2.64%. The same measure, in the same setting: as for `CCn1cc(C(=O)NC2CCCCCC2)c2cc(OC)c(OC)cc2c1=O`, the figure is 109%. For the compound `CC(C)c1ccc2[nH]c3c(c2c1)CCCC3=O`, the cell number change came out at 65.8%. Besides, the AC50 under setting [1] was 13 µM [rising, single point]. Besides, the AC50 under setting [2] was 0.651 µM [falling, single point]. Take `COCCn1c(=NC(=O)c2cc(-c3cccs3)nc3ccccc23)sc2cc(S(N)(=O)=O)ccc21`: the cell number change was found to be 34.7%. Also, the AC50 under setting [1] was 0.164 µM [falling, full curve, poor fit].

Regarding `COc1ccc(OC)c(C(=O)NC2CCSc3ccccc32)c1` (stereo not drawn), the cell number change is -0.855%. In addition, the AC50 under setting [2] was 0.82 µM [rising, partial curve, poor fit].

With `CCOc1ccccc1NC(=O)CSc1nnc(CNC(=O)c2ccccc2F)o1`, the cell number change worked out at 3.68%. Take `CCN1CCN(CCCNC(=O)c2ccc3c(c2)NC(=O)c2ccccc2S3)CC1`: the cell number change was -9.83%. Under setting [2], the AC50 is 25.9 µM [falling, partial curve]. `CC(C)Cc1nnc(NC(=O)c2cc(S(=O)(=O)N(C)C)ccc2N2CCCC2)s1`: the cell number change amounted to 34.6%. Under setting [1], the AC50 is 29.1 µM [rising, partial curve, poor fit].

Turning to `O=C(c1cnn2c(C(F)F)cc(-c3ccccc3)nc12)N1CCN2CCCC2C1` (stereo not drawn), the cell number change was 3.98%. For the compound `COc1ccc(Br)cc1CN1C(=O)NC2(CCCCCC2)C1=O`, the cell number change turned out to be 5.71%. Regarding `O=C(O)CCN1C(=O)/C(=C\c2ccc(-c3nc4ccccc4s3)o2)SC1=S`, the cell number change is 22.9%. Besides, the AC50 under setting [2] was 0.651 µM [falling, full curve].
